PubChem BioAssay AID686938 | Drosophila RNAi Screening Center, 2013
The screen tested about 23,000 reagents; this is a random part of those with a known target gene and a result. In the full data, 75 (0.33%) were called active. 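Raw plate signals without normalisation; calls rest on plate z-scores that were not deposited; ratio present for only 364 wells.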 Entries without a mark were called inactive. Reagents against one gene are numbered here. Names joined by + are all predicted targets of the reagent. Not stated in the record: the dose of the treatment.

Aim: 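Looking for CRAC channel components and the factors controlling them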 (primary screen)
Cell system: Drosophila S2R+ cells
Reagents: long dsRNA against Drosophila genes, about 0.25 µg dsRNA per well, roughly 10,000 cells
Time to read-out: 5 days of knock-down before the calcium assay
Conditions: thapsigargin (SERCA pump blocker) to empty calcium stores; entry signal taken 4 min after adding it
Measurement: 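Duplicate raw fluo-4 intensities per well from a plate reader, at rest and four minutes after thapsigargin emptied calcium stores; entry-to-rest ratio filled for only some wells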
Direction: calcium entry signal: higher = stronger calcium signal after store depletion; resting calcium signal: higher = higher resting calcium signal
Call rule: 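Hit if the duplicate-averaged plate z-score for entry over resting signal is under −3; wells with weak total dye signal (Fmax z < −2) or more than 5 off-targets removed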
Calls: active = strongly reduced calcium entry; inactive = no strong reduction

Target gene,dsRNA no.,"calcium entry signal, replicate 1 (fluorescence units)","calcium entry signal, replicate 2 (fluorescence units)","resting calcium signal, replicate 1 (fluorescence units)","resting calcium signal, replicate 2 (fluorescence units)"
Snx16 (GeneID 37015),1,4.22e7,4.21e7,2.08e7,2.11e7
CG8301 (GeneID 41160),1,2.83e7,3.05e7,1.37e7,1.63e7
CG3270 (GeneID 35575),1,4.25e7,,1.94e7,
CG43057 (GeneID 12798305),1,3.43e7,4.09e7,1.56e7,1.71e7
CG43318 (GeneID 12798422),1,2.80e7,3.99e7,1.42e7,5.74e7
CG12773 (GeneID 31082),1,3.79e7,4.13e7,1.80e7,2.04e7
lky (GeneID 33006),1,4.75e7,5.17e7,2.36e7,2.28e7
CG11158 (GeneID 32327),1,4.54e7,3.01e7,2.21e7,1.45e7
Epp (GeneID 42840),1,2.40e7,2.44e7,1.28e7,1.17e7
CG2852 (GeneID 37591),1,3.52e7,4.93e7,1.89e7,2.11e7
Blos2 (GeneID 39234),1,3.61e7,4.37e7,1.77e7,1.74e7
Dad (GeneID 42059),1,5.06e7,3.16e7,2.32e7,1.47e7
Strump (GeneID 39766),1,3.32e7,4.75e7,1.67e7,1.88e7
eIF3b (GeneID 36981),1,2.69e7,1.70e7,1.68e7,1.08e7
Arp1 (GeneID 41566),1,3.83e7,3.64e7,1.99e7,1.91e7
CG15143 (GeneID 35062),1,5.42e7,3.64e7,2.41e7,1.79e7
mmd (GeneID 32561),1,5.57e7,3.49e7,2.73e7,1.47e7
mmd (GeneID 32561),2,4.65e7,2.98e7,2.16e7,1.34e7
mmd (GeneID 32561),3,4.27e7,2.87e7,2.02e7,1.40e7
mmd (GeneID 32561),4,4.84e7,3.23e7,2.52e7,1.45e7
Drep3 (GeneID 36292),1,3.43e7,6.44e7,1.76e7,3.30e7
Drep3 (GeneID 36292),2,4.70e7,3.60e7,2.56e7,1.81e7
Drep3 (GeneID 36292),3,3.38e7,6.01e7,1.64e7,2.80e7
CG12590 (GeneID 40618),1,5.23e7,3.51e7,2.16e7,1.54e7
CG12662 (GeneID 31825),1,2.76e7,2.93e7,1.41e7,1.39e7
CG10898 (GeneID 41384),1,2.42e7,2.76e7,1.04e7,1.39e7
RIOK2 (GeneID 43046),1,2.94e7,3.35e7,1.64e7,1.60e7
Tgt (GeneID 33307),1,5.16e7,,2.46e7,
CG31549 (GeneID 40689),1,4.06e7,3.27e7,2.31e7,1.67e7
Arl5 (GeneID 38931),1,3.43e7,2.82e7,2.41e7,1.14e7
sala + CG43355,1,4.07e7,3.84e7,1.98e7,1.95e7
sala + CG43355,2,4.33e7,5.28e7,2.09e7,2.37e7
CG43691 (GeneID 14462585),1,3.42e7,3.14e7,1.80e7,1.50e7
CG43691 (GeneID 14462585),2,3.39e7,3.78e7,1.74e7,1.69e7
Cep290 (GeneID 38099),1,3.69e7,4.08e7,1.90e7,1.87e7
Blos4 (GeneID 39219),1,2.63e7,3.33e7,1.36e7,1.49e7
CG34451 (GeneID 5740612),1,2.70e7,2.69e7,1.35e7,1.33e7
CG34451 (GeneID 5740612),2,2.71e7,2.97e7,1.26e7,1.45e7
CG14315 (GeneID 42164),1,3.33e7,3.71e7,4.23e7,1.55e7
CG15930 (GeneID 31446),1,1.74e7,2.81e7,9.27e6,1.43e7

3 successive reagents from above, quoted:
Target gene,dsRNA no.,"calcium entry signal, replicate 1 (fluorescence units)","calcium entry signal, replicate 2 (fluorescence units)","resting calcium signal, replicate 1 (fluorescence units)","resting calcium signal, replicate 2 (fluorescence units)"
CG11158 (GeneID 32327),1,4.54e7,3.01e7,2.21e7,1.45e7
Epp (GeneID 42840),1,2.40e7,2.44e7,1.28e7,1.17e7
CG2852 (GeneID 37591),1,3.52e7,4.93e7,1.89e7,2.11e7
